Data source: PubChem BioAssay AID1508588 (Peter MacCallum Cancer Centre, 2020)
Aim: 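Genome-wide search for knock-downs that heighten vemurafenib action in melanoma cells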 (primary screen). Cells: human WM266.4 melanoma cells (BRAF V600 mutant). Knock-down reagent: siRNA pool against human genes, 40 nM. Timing: 96 h from transfection to read-out. Treatment: vemurafenib 300 nM (about IC25), added 48 h after transfection, for 48 h; comparison arm got DMSO vehicle only. Measured: 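Cell gain (DAPI nuclei at end minus before drug, mean of two replicates) and medium lactate by absorbance per cell, both as ratio to non-targeting siRNA, also grouped into fold-change classes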. Scale: cell gain with vemurafenib: higher = more cell gain than with non-targeting siRNA; lactate per cell with vemurafenib: higher = more lactate made per cell. Rule for the call: 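a knock-down counts as enhancing when its fold-change classes with vehicle and with vemurafenib, taken together, show a stronger drug effect on cell gain or lactate per cell; exact class pairs not stated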. Calls: active = enhances vemurafenib effect; inactive = no enhancement seen.
In all, the deposit lists about 18,000 reagents; below is an unselected part. 790 of them (4.4%) were called active. 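Calls rest on a combination of fold-change classes in drug and vehicle arms, not all shown here.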 A number with no mark means an inactive call.

{"Target gene": "CEP131 (centrosomal protein 131)", "PubChem SID": "SID135624364", "cell gain with vemurafenib": 0.89, "lactate per cell with vemurafenib": 0.88}
{"Target gene": "RNF157 (ring finger protein 157)", "PubChem SID": "SID152147717", "cell gain with vemurafenib": 1.01, "lactate per cell with vemurafenib": 0.44}
{"Target gene": "NUP88 (nucleoporin 88)", "PubChem SID": "SID134321478", "cell gain with vemurafenib": 0.52, "lactate per cell with vemurafenib": 1.17}
{"Target gene": "D2HGDH (D-2-hydroxyglutarate dehydrogenase)", "PubChem SID": "SID135625666", "cell gain with vemurafenib": 0.42, "lactate per cell with vemurafenib": 0.98}
{"Target gene": "MDC1 (mediator of DNA damage checkpoint 1)", "PubChem SID": "SID152156105", "cell gain with vemurafenib": 0.4, "lactate per cell with vemurafenib": 0.73}
{"Target gene": "PTPN18 (protein tyrosine phosphatase non-receptor type 18)", "PubChem SID": "SID135621759", "cell gain with vemurafenib": 0.76, "lactate per cell with vemurafenib": 0.91}
{"Target gene": "SLC35B4", "PubChem SID": "SID152149155", "cell gain with vemurafenib": 0.64, "lactate per cell with vemurafenib": 1.18}
{"Target gene": "IREB2 (iron responsive element binding protein 2)", "PubChem SID": "SID152147033", "cell gain with vemurafenib": 0.46, "lactate per cell with vemurafenib": 0.82}
{"Target gene": "PBOV1 (prostate and breast cancer overexpressed 1)", "PubChem SID": "SID152154505", "cell gain with vemurafenib": 0.71, "lactate per cell with vemurafenib": 0.69}
{"Target gene": "WASF3 (WASP family member 3)", "PubChem SID": "SID152149162", "cell gain with vemurafenib": 1.05, "lactate per cell with vemurafenib": 0.84}
{"Target gene": "ZNF43 (zinc finger protein 43)", "PubChem SID": "SID152154933", "cell gain with vemurafenib": 0.24, "lactate per cell with vemurafenib": 1}
{"Target gene": "NAA16 (N-alpha-acetyltransferase 16, NatA auxiliary subunit)", "PubChem SID": "SID134317565", "cell gain with vemurafenib": 0.92, "lactate per cell with vemurafenib": 1.04}
{"Target gene": "LBP (lipopolysaccharide binding protein)", "PubChem SID": "SID134314761", "cell gain with vemurafenib": 0.31, "lactate per cell with vemurafenib": 1.58}
{"Target gene": "ANKS6 (ankyrin repeat and sterile alpha motif domain containing 6)", "PubChem SID": "SID152154563", "cell gain with vemurafenib": 0.75, "lactate per cell with vemurafenib": 0.68}
{"Target gene": "SORCS1 (sortilin related VPS10 domain containing receptor 1)", "PubChem SID": "SID152152522", "cell gain with vemurafenib": 0.77, "lactate per cell with vemurafenib": 0.77}
{"Target gene": "ZFYVE28 (zinc finger FYVE-type containing 28)", "PubChem SID": "SID135624439", "cell gain with vemurafenib": 0.86, "lactate per cell with vemurafenib": 1.06}
{"Target gene": "ORAI3 (ORAI calcium release-activated calcium modulator 3)", "PubChem SID": "SID134319913", "cell gain with vemurafenib": 0.92, "lactate per cell with vemurafenib": 0.82}
{"Target gene": "NDUFA6 (NADH:ubiquinone oxidoreductase subunit A6)", "PubChem SID": "SID152154444", "cell gain with vemurafenib": 0.84, "lactate per cell with vemurafenib": 0.98}
{"Target gene": "BIN2 (bridging integrator 2)", "PubChem SID": "SID152148506", "cell gain with vemurafenib": 0.94, "lactate per cell with vemurafenib": 1.07}
{"Target gene": "BLOC1S3 (biogenesis of lysosomal organelles complex 1 subunit 3)", "PubChem SID": "SID152154654", "cell gain with vemurafenib": 0.76, "lactate per cell with vemurafenib": 1.03}
{"Target gene": "CST9 (cystatin 9)", "PubChem SID": "SID135625216", "cell gain with vemurafenib": 0.51, "lactate per cell with vemurafenib": 0.57}

The list goes on (2 carried over from the part before).
{"Target gene": "BLOC1S3 (biogenesis of lysosomal organelles complex 1 subunit 3)", "PubChem SID": "SID152154654", "cell gain with vemurafenib": 0.76, "lactate per cell with vemurafenib": 1.03}
{"Target gene": "CST9 (cystatin 9)", "PubChem SID": "SID135625216", "cell gain with vemurafenib": 0.51, "lactate per cell with vemurafenib": 0.57}
{"Target gene": "BMP5 (bone morphogenetic protein 5)", "PubChem SID": "SID152153763", "cell gain with vemurafenib": 0.68, "lactate per cell with vemurafenib": 0.4}
{"Target gene": "HOMER2 (homer scaffold protein 2)", "PubChem SID": "SID134323628", "cell gain with vemurafenib": 0.87, "lactate per cell with vemurafenib": 1.07}
{"Target gene": "MAGEF1 (MAGE family member F1)", "PubChem SID": "SID152153626", "cell gain with vemurafenib": 0.67, "lactate per cell with vemurafenib": 1.46}
{"Target gene": "ARHGAP36 (Rho GTPase activating protein 36)", "PubChem SID": "SID134313318", "cell gain with vemurafenib": 0.55, "lactate per cell with vemurafenib": 1.08}
{"Target gene": "RPL31 (ribosomal protein L31)", "PubChem SID": "SID152153058", "cell gain with vemurafenib": -0.09, "lactate per cell with vemurafenib": 4.79}
{"Target gene": "NPRL3 (NPR3 like, GATOR1 complex subunit)", "PubChem SID": "SID135623902", "cell gain with vemurafenib": 0.48, "lactate per cell with vemurafenib": 0.73}
{"Target gene": "OSBPL3 (oxysterol binding protein like 3)", "PubChem SID": "SID134314134", "cell gain with vemurafenib": 0.76, "lactate per cell with vemurafenib": 1.06}
{"Target gene": "SDR9C7 (short chain dehydrogenase/reductase family 9C member 7)", "PubChem SID": "SID134313704", "cell gain with vemurafenib": 0.76, "lactate per cell with vemurafenib": 0.74}
{"Target gene": "PES1 (pescadillo ribosomal biogenesis factor 1)", "PubChem SID": "SID134314274", "cell gain with vemurafenib": 0.09, "lactate per cell with vemurafenib": 1.7}
{"Target gene": "TICRR (TOPBP1 interacting checkpoint and replication regulator)", "PubChem SID": "SID152154819", "cell gain with vemurafenib": 0.06, "lactate per cell with vemurafenib": 1.23}
{"Target gene": "MYO18A (myosin XVIIIA)", "PubChem SID": "SID134316233", "cell gain with vemurafenib": 0.47, "lactate per cell with vemurafenib": 1.1}
{"Target gene": "MYO18A (myosin XVIIIA)", "PubChem SID": "SID134329267", "cell gain with vemurafenib": 0.42, "lactate per cell with vemurafenib": 1.16}
{"Target gene": "TFAP4 (transcription factor AP-4)", "PubChem SID": "SID134314239", "cell gain with vemurafenib": 0.67, "lactate per cell with vemurafenib": 0.98}
{"Target gene": "DNAJC12 (DnaJ heat shock protein family (Hsp40) member C12)", "PubChem SID": "SID134318166", "cell gain with vemurafenib": 1.13, "lactate per cell with vemurafenib": 0.82}
{"Target gene": "PNMA2 (PNMA family member 2)", "PubChem SID": "SID152156619", "cell gain with vemurafenib": 0.96, "lactate per cell with vemurafenib": 0.42}
{"Target gene": "SPATA33 (spermatogenesis associated 33)", "PubChem SID": "SID134320423", "cell gain with vemurafenib": 0.53, "lactate per cell with vemurafenib": 0.68}
{"Target gene": "STAC3 (SH3 and cysteine rich domain 3)", "PubChem SID": "SID134319884", "cell gain with vemurafenib": "0.93 (active)", "lactate per cell with vemurafenib": 0.44}
{"Target gene": "USP15 (ubiquitin specific peptidase 15)", "PubChem SID": "SID135621136", "cell gain with vemurafenib": 0.43, "lactate per cell with vemurafenib": 1.18}
{"Target gene": "FPR1 (formyl peptide receptor 1)", "PubChem SID": "SID134310007", "cell gain with vemurafenib": 1.06, "lactate per cell with vemurafenib": 0.48}
